The same purity stands for every peptide and may come from a single statement. Non-standard residues stand in square brackets, D forms with d. *: point of attachment. Propanoyl(3-SS-DM1) = COc1cc2cc(c1Cl)N(C)C(=O)C[C@H](OC(=O)[C@H](C)N(C)C(=O)CCSSCCC(=O)*)[C@]1(C)O[C@H]1[C@H](C)[C@@H]1C[C@@](O)(NC(=O)O1)[C@H](OC)/C=C/C=C(\C)C2; DOTA = O=C(O)CN1CCN(CC(=O)O)CCN(CC(=O)*)CCN(CC(=O)O)CC1; EuK = O=C(O)CC[C@H](NC(=O)N[C@@H](CCCCN*)C(=O)O)C(=O)O; Sta = CC(C)C[C@H](N)[C@@H](O)CC(=O)O; Ahx = NCCCCCC(=O)O

The text below walks through data of article PMC10458530 (Pharmaceuticals, 2023).

The data set is described as follows: general procedure: Fmoc solid-phase peptide synthesis; HBTU; PyBOP.
Where [1] appears, read: whole synthesis, scale 0.1 mmol.

Turning to “EuK(Ahx-Sta-Phe-Asp-Lys(C(O)-(CH2)2-S-S-Py)-DOTA)”, under “late stage modification step”, the “final LC-MS purity” value is “purity > 99%”. The same substance had a step yield (late stage modification step, on 1) of 73%.

As to “EuK(Ahx-Sta-Phe-Asp-Lys(C(O)-(CH2)2-SH)-DOTA)”, for the setting “whole synthesis, scale of the general procedure 0.1 mmol”, the “final LC-MS purity” value is “purity > 99%”. Under setting [1], this substance came in with an isolated mass of 32.1 mg and an isolated yield of 22%.

“{DOTA}-K(Propanoyl(3-SS-DM1))DF[Sta][Ahx]-EuK (SMILES COc1cc2cc(c1Cl)N(C)C(=O)C[C@H](OC(=O)[C@H](C)N(C)C(=O)CCSSCCC(=O)NCCCC[C@H](NC(=O)CN1CCN(CC(=O)O)CCN(CC(=O)O)CCN(CC(=O)O)CC1)C(=O)N[C@@H](CC(=O)O)C(=O)N[C@@H](Cc1ccccc1)C(=O)N[C@@H](CC(C)C)[C@@H](O)CC(=O)NCCCCCC(=O)NCCCC[C@H](NC(=O)N[C@@H](CCC(=O)O)C(=O)O)C(=O)O)[C@]1(C)O[C@H]1[C@H](C)[C@@H]1C[C@@](O)(NC(=O)O1)[C@H](OC)/C=C/C=C(\C)C2)”: the “final LC-MS purity” value (conjugation step) is given as “purity > 99%”. Also, the conjugation yield turned out to be 66% (conjugation step, on 2) and 48% (conjugation step, over the last two steps). Also, under “whole synthesis, global chemical yield, scale of the general procedure 0.1 mmol”, the isolated yield is given as 11%.
